Test results published in patent publication US9914750B2, “Synthetic peptides and peptide mimetics” (University of Louisville Research Foundation, priority 2007, dated 2018).
Entries after “also recorded” stand apart in the source; their conditions may differ. At least one peptide structure holds a part that was inferred or is arguable (an end, a ring closure or a residue). No end group written: not given here.

Key:
A. actinomycetemcomitans = assay: Bacterial agglutination visualized in polystyrene plates, crystal violet; assay type: cell-based, Aggregatibacter (Actinobacillus) actinomycetemcomitans; details: 100 μg/ml, 30 min
[1] = test system: RAW 264.7 macrophage cells; assay: Monophosphoryl lipid A (MPLA)-induced TNFα secretion (ELISA); assay type: cell-based, mouse; details: 200 μg/ml peptide
[2] = test system: RAW 264.7 macrophage cells; assay: LPS-induced TNFα secretion (ELISA); assay type: cell-based, mouse
Method: FIGS. 15A and 15B. FIG. 15A. Inhibition of endotoxin-stimulated TNFα secretion. RAW 264.7 macrophage cells were stimulated with 100 ng/ml LPS in the presence or absence of the PSP-derived peptides GK7, KL11 or GL13 (200 μg/ml). Polymyxin B (PMX) was used as a positive control. Further controls consisted of peptides alone without LPS stimulation. TNFα secretion was analyzed by ELISA of the RAW culture medium. The data are from triplicate RAW culture dishes for each condition. *) different from LPS alone P<0.03, **) P<0.0002. FIG. 15B. Dose response curve for the inhibition of LPS-induced TNFα secretion by GL-13.
In the present experiments, the redesigned PSP peptides (GL13, KL11) were tested for their effect on TNFα secretion and compared to GK7.

[3] = test system: P. aeruginosa with RAW 264.7 macrophage cells; assay: Gentamicin protection assay (phagocytosis / clearance by macrophages); assay type: cell-based, mouse; details: 100 μg/ml peptide
Method: FIG. 13. Phagocytosis of P. aeruginosa: Bacteria (5×10^8 CFU/ml) were incubated with buffer (Blk), GK-7 or GL-13 (100 μg/ml) for 1 h and added to RAW cells for 2 h. The RAW cells were washed and incubated with […] for 90 min. The cells were lysed in 1% Tween-20 and the diluted contents plated on agar. CFU were enumerated and expressed relative to the mean of the blank in each of three experiments (N=9) *) P=0.025.
Overnight cultures of P. aeruginosa were diluted 1:5 in PBS and incubated for 1 h at room temperature with PSP peptides (100 μg/ml) or with an equivalent amount of 0.01% acetic acid. Aliquots (500 μl) of these samples were added to RAW 264.7 macrophage cells cultured in 24-well plates and incubated for 2 h at 37° C., 5% CO2. The cells were washed in DMEM and then incubated with DMEM containing 200 μg/ml Gentamicin for 90 min at 37° C., 5% CO2. The cells were again washed with DMEM and the incubated with 200 μl/well of PBS containing 1% Tween 20 for 5 min at room temperature. The cell extracts were diluted in LB and plated on LB agar plates. CFU were enumerated after overnight incubation at 37° C.

[4] = test system: Aggregatibacter (Actinobacillus) actinomycetemcomitans JP2; assay type: cell-based
Method: The PSP peptides GL13, GK7 and KL11, lysozyme, LL37 or no peptide (BLK) were incubated with P. aeruginosa (FIG. 3A) or A. actinomycetemcomitans (FIG. 3B). P. aeruginosa PAO1 (10^5 cells/ml) were incubated for 2 h at 35° C. with 10 μg/ml (open bars) or 100 μg/ml (shaded bars) of each peptide. A. actinomycetemcomitans JP2 (10^5 cells/nil) were incubated for 4 h at 37° C. under reduced oxygen conditions. Bacterial cultures were diluted and plated on LB agar (Pseudomonas) or BHI agar plates (A.a., low oxygen incubation) and surviving CFUs enumerated. The data are shown as mean±SEM, P. aeruginosa: N=8−22 at 100 μg/ml, N=2−10 at 10 μg/ml. A. actinomycetemcomitans: N=3. *) P<0.0001, **) P<0.004, ***) P<0.02
Overnight cultures of bacteria were pelleted and resuspended in 10 mM sodium phosphate, pH 7.4 (10^5 CFU/ml). Diluted bacteria (100 μl) were incubated with 10 or 100 μg/ml of each peptide in 10 mM sodium phosphate, pH 7.4. P aeruginosa PAO1 were incubated for 2 h at 35° C. while A. actinomycetemcomitans JP2 were incubated for 4 h at 37° C. under reduced oxygen conditions. […]
As a second antibacterial assay, bactericidal activity was determined by incubating the peptides (10 or 100 μg/ml) with P. aeruginosa, A. actinomycetemcomitans or S. gordonii in 10 mM phosphate buffer. […]

[5] = test system: A. actinomycetemcomitans JP2; assay: MIC determination, broth dilution assay (growth OD 570 nm, pelleting in wells); assay type: cell-based, Aggregatibacter (Actinobacillus) actinomycetemcomitans
Method: FIGS. 5A and 5B: PSP peptides lack bacteriostatic activity. P. aeruginosa PAO1 or A. actinomycetemcomitans JP2 (10^5 cells/ml) were incubated overnight with two-fold serial dilutions of the indicated peptides. The OD was determined at 570 nm. The data for P. aeruginosa (FIG. 5A) are representative of six independent experiments. The data for A. actinomycetemcomitans (FIG. 5B) are representative of three independent experiments. Filled squares, lysozyme; open diamonds, no peptide; open triangles, KL-11; filled triangles, GK-7; open squares, GL-13; filled diamonds, LL-37. […] Lysozyme inhibits growth about 50%. None of the PSP peptides inhibit growth.
The minimal inhibitory concentration (MIC) of PSP peptides was tested using the broth dilution assay. Briefly, overnight cultures of bacteria were diluted in Mueller-Hinton broth (MHB) (Difco) to 10^5 CFU/ml. Diluted bacteria (100 μl) and two-fold serial dilutions of peptides in 10 mM sodium phosphate, pH 7.4 (20 μl) were mixed in polypropylene microtiter plates and incubated for 24 h at 35° C. for P. aeruginosa or 48 h at 37° C. under reduced oxygen conditions for A. actinomycetemcomitans. Control samples were incubated with bacteria and two-fold serial dilutions of 20 μl 0.01% acetic acid in 10 mM sodium phosphate. Bacterial growth was quantitated by the optical density (OD) at 570 nm. […]

“GQIINLKASLDLL-NH2 [GL13-NH2, GQIINLKASLDLL-(CONH2)]” was tested, and the “agglutination of A. actinomycetemcomitans (words)” value (A. actinomycetemcomitans; listed as GL-13) was “causes agglutination”, the “agglutination of A. actinomycetemcomitans (words)” value (A. actinomycetemcomitans; listed as GL-13-NH2) was “Agglutination was observed” and the “MPLA-induced TNFα secretion” value [1] was “also inhibited by GL-13; also recorded: inhibits the activity of the LPS derivative MPLA”. The “LPS-induced TNFα secretion” value [2] was “inhibits LPS action on macrophages, and activity is better than that of polymyxin B; also recorded: strongly inhibits the LPS-stimulated secretion of TNFα”, the “reduction of LPS-induced TNFα secretion” value ([2]; 100 ng/ml LPS, 200 μg/ml peptide) was “about 11 fold” and the “bacterial clearance / phagocytosis” value [3] was “enhanced the phagocytosis”. The “increase in bacterial clearance” value [3] was 80%, the “bactericidal activity against A. actinomycetemcomitans” value [4] was “not bactericidal” and the “appearance of bacterial pellet in MIC plates (words)” value ([5]; listed as GL13) was “diffuse pellet”. The “appearance of bacterial pellet in MIC plates (words)” value ([5]; listed as GL-13-NH2) was “caused matting of the bacteria”.
